Results are given in words; binding and its absence hold for the method and conditions named. Binding seen in cells or lysates may run through a third protein. These calls come from enrichment with a bait or labelling near it, and not all partners need be listed. Tags and fused reporters may be left off the sequences shown.
Biological target: T1, PARG-1::GFP (C. elegans) (UniProt Q867X0)
T1 sequence: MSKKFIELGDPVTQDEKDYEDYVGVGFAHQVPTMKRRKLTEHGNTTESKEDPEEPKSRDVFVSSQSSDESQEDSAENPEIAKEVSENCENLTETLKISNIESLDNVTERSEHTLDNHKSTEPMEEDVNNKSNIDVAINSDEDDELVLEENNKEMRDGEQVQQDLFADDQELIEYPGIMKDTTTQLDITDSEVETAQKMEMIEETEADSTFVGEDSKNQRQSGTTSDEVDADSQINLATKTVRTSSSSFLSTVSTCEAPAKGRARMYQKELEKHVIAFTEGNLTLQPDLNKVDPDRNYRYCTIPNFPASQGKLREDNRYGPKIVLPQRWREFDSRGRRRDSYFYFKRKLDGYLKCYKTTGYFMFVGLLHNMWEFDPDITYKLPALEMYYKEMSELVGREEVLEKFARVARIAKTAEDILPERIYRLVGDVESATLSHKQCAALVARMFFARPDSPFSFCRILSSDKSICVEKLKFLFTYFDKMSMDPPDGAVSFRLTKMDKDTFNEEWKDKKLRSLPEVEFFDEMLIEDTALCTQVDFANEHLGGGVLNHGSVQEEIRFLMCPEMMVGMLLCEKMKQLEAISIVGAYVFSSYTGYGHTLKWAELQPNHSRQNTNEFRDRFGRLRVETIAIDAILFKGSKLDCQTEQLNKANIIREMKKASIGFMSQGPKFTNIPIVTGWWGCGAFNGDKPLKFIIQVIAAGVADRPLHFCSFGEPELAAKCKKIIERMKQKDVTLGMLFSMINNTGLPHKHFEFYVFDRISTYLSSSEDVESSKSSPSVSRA
Assay: affinity purification with mass spectrometry; GFP immunoprecipitation with agarose GFP-traps (Chromotek) from 1 mg of pooled nuclear-soluble and chromatin-bound fractions of parg-1::GFP animals, with untagged WT animals as control; Buffer D (20% glycerol, 0.2 mM EDTA pH 8, 150 mM KCl, 20 mM Hepes-KOH pH 7.9, 0.2% Triton X-100); overnight at 4°C

binding: binds
B1: HTP-3 phosphorylated at Serine 285 (protein, UniProt O01820 1-739)
chain: MDESFDSSVVPGSLTSDDRAIFNEQTLKNGDENSKSSLEVMANCVYLANSTILRERKVIPAEYFQDFQVYGDVSGYTLRQDIPEGRSVSSKLLASHDAIRQKLLQKLAIVVEESLNTNPVETFVWTFVYDSTTSASAEIGYGGRKSKFVVNYLNMDDTAQQFCKMFSELRNVLSLLRPLPRGLIPSMKVAYRGEPEFVPGFQQVDDFVNPEQINLGAVSFPHGNGFQFAYASKFMVEQPSAIRPPVEVSHFEDDLLNSTITPIEVVRDNTMNCAENPELDEIYFSPGRQEVRMDEDVANESIRCNPSMASEMMVLQSEYNVLIADNDEVPMVVERERSPIVKAAKKRSTRAPAVPITPTEPASPVESPVKEQPQKAPKAQMRRSSKRTTKNNERCEQKEEEPIVNPKRRSARRLVPPVEVDEQPEEQNDDDAQNSLQIDSDAQNSLQIDSDAIITSPEKRNESKSAIPEEAADLDNTTSEKQESSTARYGVSNTSINRKKPDPVANPVSEEAQVDLANGSIPDKRPRKRKYGRVSSILDVADLPTDDTVEEDVRESPIYGRVPSILDVARAEENDAQNDAQDAQNEIAVEGLADLSIDTEQHEEAAPINVTGHQSESVPIIVTEHQSEEAQTVVTEQPAGAASVIAAERHYGRVSSILDVAGSFADVDPSGAAPAIATERHYGRVSSILDVAGSLSDVDPQEDTESSTQNQSTSKKFKPNPPKAMRYGQSPNMPSRRGN
modifications: phosphoserine at 285

Reference: paper PMC9073698
